# According to PMC7862700:
# Protein sequences, listed by entry. Tags and fused reporters are not part of them. Lines headed by an entry give the natural chain unless they say otherwise; changes in a name come on top.
# UniProt Q01892: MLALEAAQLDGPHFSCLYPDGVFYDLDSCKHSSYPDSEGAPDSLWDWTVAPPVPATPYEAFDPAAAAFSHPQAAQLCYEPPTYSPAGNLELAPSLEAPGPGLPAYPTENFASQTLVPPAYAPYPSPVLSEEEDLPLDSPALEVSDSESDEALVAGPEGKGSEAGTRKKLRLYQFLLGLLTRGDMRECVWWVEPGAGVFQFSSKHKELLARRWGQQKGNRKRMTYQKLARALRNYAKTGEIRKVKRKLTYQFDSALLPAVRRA
# UniProt Q99607: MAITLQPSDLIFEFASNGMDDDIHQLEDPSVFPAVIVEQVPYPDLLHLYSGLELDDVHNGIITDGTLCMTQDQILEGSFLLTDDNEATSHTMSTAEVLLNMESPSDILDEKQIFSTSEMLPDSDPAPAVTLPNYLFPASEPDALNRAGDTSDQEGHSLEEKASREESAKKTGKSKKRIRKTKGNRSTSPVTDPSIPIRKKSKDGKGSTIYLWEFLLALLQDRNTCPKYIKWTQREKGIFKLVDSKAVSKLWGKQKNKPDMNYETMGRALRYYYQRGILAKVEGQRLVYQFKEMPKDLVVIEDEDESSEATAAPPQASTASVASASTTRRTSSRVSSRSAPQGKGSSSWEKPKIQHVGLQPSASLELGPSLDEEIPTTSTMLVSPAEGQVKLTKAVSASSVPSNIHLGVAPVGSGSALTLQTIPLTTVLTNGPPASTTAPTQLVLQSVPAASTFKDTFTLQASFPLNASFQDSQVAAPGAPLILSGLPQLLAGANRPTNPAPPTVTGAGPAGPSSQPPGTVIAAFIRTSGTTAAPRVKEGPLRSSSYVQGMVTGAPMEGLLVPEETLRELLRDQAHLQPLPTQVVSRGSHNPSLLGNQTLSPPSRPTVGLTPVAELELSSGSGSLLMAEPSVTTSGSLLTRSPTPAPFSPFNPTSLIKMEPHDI
# This is a selection; strong and weak results do not stand in their true shares. For some of these results: At the low end of the ranking the order means little.
# Target: SPIB (UniProt Q01892)
# Test: DAPPL (digital affinity profiling via proximity ligation, sequencing)
# Conditions: 10 mM Tris-HCl pH 7.5, 50 mM NaCl, 1 mM DTT, 4% glycerol, room temperature, 30 min; GST-TFs on glutathione beads, 16-mer random dsDNA library, 0.1% …; high values mean tight binding; double strand, one strand shown; scale: fold enrichment (6-mer frequency, TF over GST control)
row,Sequence,binding signal
1,AAAGGG,1.19
2,TACTCA,1.36
3,ATACGG,1.23
4,CGGTCT,1.16
5,CTTAAC,1.4
6,CTTTGC,1.32
7,CATGGG,0.821
8,CCTTGC,1.24
9,ATGACC,1.45

# Target: ELF4 (UniProt Q99607)
# Test: as above
# Conditions: 10 mM Tris-HCl pH 7.5, 50 mM NaCl, 1 mM DTT, 4% glycerol, room temperature, 30 min; GST-TFs on glutathione beads, 16-mer random dsDNA library, 0.1% …; high values mean tight binding; double strand, one strand shown; scale: fold enrichment (6-mer frequency, TF over GST control)
row,Sequence,binding signal
1,AAAGGG,1.19
2,TACTCA,1.23
3,ATACGG,1.2
4,CGGTCT,1.18
5,CTTAAC,1.28
6,CTTTGC,1.36
7,CATGGG,1
8,CCTTGC,1.27
9,ATGACC,1.66

# Target: T1, ETV2 (UniProt O00321)
# T1 sequence: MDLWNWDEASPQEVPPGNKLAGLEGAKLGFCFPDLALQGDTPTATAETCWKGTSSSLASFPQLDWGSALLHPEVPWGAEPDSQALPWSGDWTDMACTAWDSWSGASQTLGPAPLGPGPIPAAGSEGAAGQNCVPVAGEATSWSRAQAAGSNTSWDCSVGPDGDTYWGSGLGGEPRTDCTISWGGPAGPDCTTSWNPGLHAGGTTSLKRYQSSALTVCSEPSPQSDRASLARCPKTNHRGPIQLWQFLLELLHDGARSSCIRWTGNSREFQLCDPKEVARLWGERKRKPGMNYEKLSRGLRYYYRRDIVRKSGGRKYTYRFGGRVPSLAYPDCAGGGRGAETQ
# Test: as above
# Conditions: 10 mM Tris-HCl pH 7.5, 50 mM NaCl, 1 mM DTT, 4% glycerol, room temperature, 30 min; GST-TFs on glutathione beads, 16-mer random dsDNA library, 0.1% …; high values mean tight binding; double strand, one strand shown; scale: fold enrichment (6-mer frequency, TF over GST control)
row,Sequence,binding signal
1,CAAGTA,0.981
2,CAGCTA,0.937
3,CGGTTC,1.39
4,GCCTAC,1.16
5,CGTCTT,1.29
6,TTTGGA,1.22
7,TGCAAG,0.968
8,CCACCT,0.913
9,ACCTTC,1.71
10,CAACAC,1.08
11,ACTTCT,1.37
12,CCCGTC,1.32
13,TTACTT,1.66
14,AGATGA,1.17
15,GCCTGC,1.15
16,GGACTC,1.01

# Looked up above:
# In binding signal, ACCTTC shows 1.71
# In binding signal, CCACCT shows 0.913

# Remaining list, next part

row,Sequence,binding signal
1,TGGTGC,0.947
2,TCTCGT,1.27
3,CGTCGC,1.2
4,GCCCAC,0.999
5,GCCACT,1.15
6,ACCGGC,0.978
7,GGAAGA,1.09
8,CTACAC,1.19
9,TTTCGG,1.16
10,TATCTG,1.33
11,AGTATG,0.999
12,GCTGCG,0.876
13,AATTGA,1.18
14,GATAAT,0.978
15,GGTAAT,0.971
